Results published in publication PMC5458512.
Results are given in words; binding and its absence hold for the method and conditions named. In cells and extracts the contact can be indirect. Some results given as binding are weak or reduced against the parent protein; the word gives no strength. Sequences can lack the tags named with a protein.

Target: T1, Argonaute (Ago1), endogenous 3xFLAG-tagged (S. pombe) (UniProt O74957)
T1 sequence: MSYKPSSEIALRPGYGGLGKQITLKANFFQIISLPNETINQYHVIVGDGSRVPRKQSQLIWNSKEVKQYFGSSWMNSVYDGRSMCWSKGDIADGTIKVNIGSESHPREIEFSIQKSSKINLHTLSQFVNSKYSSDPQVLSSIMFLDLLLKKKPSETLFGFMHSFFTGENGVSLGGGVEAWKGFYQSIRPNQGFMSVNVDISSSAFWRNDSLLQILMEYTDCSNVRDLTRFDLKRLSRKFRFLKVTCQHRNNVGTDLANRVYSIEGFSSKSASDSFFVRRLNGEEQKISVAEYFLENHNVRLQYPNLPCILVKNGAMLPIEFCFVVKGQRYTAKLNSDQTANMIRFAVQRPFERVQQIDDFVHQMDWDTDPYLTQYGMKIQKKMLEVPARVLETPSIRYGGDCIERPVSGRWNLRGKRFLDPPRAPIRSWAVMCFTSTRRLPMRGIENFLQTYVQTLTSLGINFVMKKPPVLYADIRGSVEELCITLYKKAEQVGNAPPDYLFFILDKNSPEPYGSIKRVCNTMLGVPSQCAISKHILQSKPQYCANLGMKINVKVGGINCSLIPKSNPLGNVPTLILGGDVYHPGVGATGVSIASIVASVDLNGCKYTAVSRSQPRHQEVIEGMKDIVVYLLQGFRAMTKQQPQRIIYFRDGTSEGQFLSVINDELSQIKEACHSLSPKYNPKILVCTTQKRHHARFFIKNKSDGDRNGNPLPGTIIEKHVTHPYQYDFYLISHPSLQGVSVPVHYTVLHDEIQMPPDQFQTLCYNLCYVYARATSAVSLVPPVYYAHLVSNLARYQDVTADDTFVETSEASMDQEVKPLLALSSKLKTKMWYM
Test: co-IP; Flag immunoprecipitation (Flag-M2 affinity gel) of Ago1 from S. pombe lysate in low salt (50 mM HEPES pH 7.5, 100 mM NaOAc, 5 mM MgCl2, 2 mM EDTA, 2 mM EGTA, 0.1% Nonidet P-40, 20% glycerol), 4 °C; immunoblot with anti-HA and anti-FLAG

- binding: binds
B1: Cid14, endogenously C-terminally 3xHA-tagged (enzyme, UniProt Q9UTN3 1-684)
chain: MGKKSVSFNRNNYKKRKNERTEPLPRRIFKNDKPSKFKSKRKEKDKNSDAYDEMLLNNNFTLLDQEEPMVEIGSKKSRNDNDSEGIRDKGGVEISNKNDPYIQFGKADPLEPLEKPDLPEEAIKRGEPTILLGIPKREGRKTNPVHDKAVENNSDFIKFDWNSDEDEDSVSNDKSKNNESLKKSSKNEIPGFMRQRGRFFHEANEKSDSNRKRKRQAYELDSQSCPWHRQYKVEREVSRIFHQDILHFIDYITPTPEEHAVRKTLVSRINQAVLQKWPDVSLYVFGSFETKLYLPTSDLDLVIISPEHHYRGTKKDMFVLAHHLKKLKLASEVQVITTANVPIIKFVDPLTKVHVDISFNQPGGLKTCLVVNGFMKKYPALRPLVIIIKHFLNMRALNEVFLGGLSSYAIVCLVVSFLQLHPRLSTGSMREEDNFGVLLLEFLELYGKQFYYDAVGIAVHNGGFYFSKKKMGWLKPNQPYLLSIQDPVDFQNDVSKSSRGLLRVKATFANGFDLLTSKLYALASRIEREGVNRVKDFPSILSTILSVDEGVRQHREHMLKCYKNNPVPLEPLVEVDALASIDVDKLPLQDVGLQYVEDESDSDETDAAKDDLFKVNESIETNGHENFQKQALTSTGEQSSSNSRANPSKLFNISSDDSEDEVPIIEDTTASDEESRAKKIRKRF
